The target of assay [1] is T1, dN36-MepS (residues 37-162) (E. coli) (UniProt P0AFV4).
T1 sequence: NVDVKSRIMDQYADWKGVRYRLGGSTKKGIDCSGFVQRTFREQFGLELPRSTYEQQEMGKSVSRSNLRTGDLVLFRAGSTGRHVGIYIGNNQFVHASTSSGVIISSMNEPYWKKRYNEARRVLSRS
Description: NMR 15N relaxation (T1/T2, rotational correlation time); 1D 15N-edited T1 and T2 of 15N mMepS and dN36-MepS alone, 800 MHz, 298 K; τc from T1/T2; both purified.

The target in assay [2] is NlpI-ΔN (residues 37-294), monomeric mutant of NlpI (E. coli) (UniProt P0AFB1). Description: SEC; NlpI (20-294) and NlpI-ΔN (37-294) each run alone (Supplementary Fig. 13A); both purified. (SEC sorts molecules by how far they enter the pores of the column.)

Results are given in words; binding and its absence hold for the method and conditions named.

B1: dN36-MepS (residues 37-162) (domain or fragment, UniProt P0AFV4 63-188)
chain: NVDVKSRIMDQYADWKGVRYRLGGSTKKGIDCSGFVQRTFREQFGLELPRSTYEQQEMGKSVSRSNLRTGDLVLFRAGSTGRHVGIYIGNNQFVHASTSSGVIISSMNEPYWKKRYNEARRVLSRS
modifications: 15N-labelled in the NMR experiments
Regarding B1, in assay [1], the binding entry is listed as “no binding”.

B2: NlpI-ΔN (residues 37-294), monomeric mutant of NlpI (domain or fragment, UniProt P0AFB1 37-294)
chain: TLQQEVILARMEQILASRALTDDERAQLLYERGVLYDSLGLRALARNDFSQALAIRPDMPEVFNYLGIYLTQAGNFDAAYEAFDSVLELDPTYNYAHLNRGIALYYGGRDKLAQDDLLAFYQDDPNDPFRSLWLYLAEQKLDEKQAKEVLKQHFEKSDKEQWGWNIVEFYLGNISEQTLMERLKADATDNTSLAEHLSETNFYLGKYYLSLGDLDSATALFKLAVANNVHNFVEHRYALLELSLLGQDQDDLAESDQQ
For B2, in assay [2], the binding result is recorded as “no binding”.

(Values after publication PMC11211486.)
